{"source": "patent US8217063B2", "about": "“Lactam-substituted dicarboxylic acids and use thereof” (Bayer Intellectual Property GmbH, priority 2007, dated 2012)", "molecular_target": "T1, recombinant guanylate cyclase reporter cell line (Rattus norvegicus, UniProt P20595)", "T1 construct": "expressed in transfected cells; host or cells: CHO", "T1 sequence (P20595 1-619)": "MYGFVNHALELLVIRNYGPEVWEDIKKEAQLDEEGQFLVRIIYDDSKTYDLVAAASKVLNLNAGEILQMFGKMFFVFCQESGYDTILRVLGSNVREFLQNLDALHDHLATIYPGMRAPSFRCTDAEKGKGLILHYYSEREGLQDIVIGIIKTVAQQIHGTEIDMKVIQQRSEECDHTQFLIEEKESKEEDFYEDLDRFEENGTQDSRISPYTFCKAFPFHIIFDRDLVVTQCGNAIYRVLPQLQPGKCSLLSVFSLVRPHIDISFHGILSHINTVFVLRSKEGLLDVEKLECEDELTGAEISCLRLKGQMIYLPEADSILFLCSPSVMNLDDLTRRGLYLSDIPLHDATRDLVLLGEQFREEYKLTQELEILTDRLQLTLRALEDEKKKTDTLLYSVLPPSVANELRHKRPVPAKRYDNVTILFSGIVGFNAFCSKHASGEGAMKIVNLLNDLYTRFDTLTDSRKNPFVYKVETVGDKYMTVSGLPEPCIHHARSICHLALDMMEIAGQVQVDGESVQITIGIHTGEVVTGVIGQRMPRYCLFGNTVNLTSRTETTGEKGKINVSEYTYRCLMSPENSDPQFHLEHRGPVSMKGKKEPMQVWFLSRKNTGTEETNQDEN", "T1 sequence (P19686 1-690 partner)": "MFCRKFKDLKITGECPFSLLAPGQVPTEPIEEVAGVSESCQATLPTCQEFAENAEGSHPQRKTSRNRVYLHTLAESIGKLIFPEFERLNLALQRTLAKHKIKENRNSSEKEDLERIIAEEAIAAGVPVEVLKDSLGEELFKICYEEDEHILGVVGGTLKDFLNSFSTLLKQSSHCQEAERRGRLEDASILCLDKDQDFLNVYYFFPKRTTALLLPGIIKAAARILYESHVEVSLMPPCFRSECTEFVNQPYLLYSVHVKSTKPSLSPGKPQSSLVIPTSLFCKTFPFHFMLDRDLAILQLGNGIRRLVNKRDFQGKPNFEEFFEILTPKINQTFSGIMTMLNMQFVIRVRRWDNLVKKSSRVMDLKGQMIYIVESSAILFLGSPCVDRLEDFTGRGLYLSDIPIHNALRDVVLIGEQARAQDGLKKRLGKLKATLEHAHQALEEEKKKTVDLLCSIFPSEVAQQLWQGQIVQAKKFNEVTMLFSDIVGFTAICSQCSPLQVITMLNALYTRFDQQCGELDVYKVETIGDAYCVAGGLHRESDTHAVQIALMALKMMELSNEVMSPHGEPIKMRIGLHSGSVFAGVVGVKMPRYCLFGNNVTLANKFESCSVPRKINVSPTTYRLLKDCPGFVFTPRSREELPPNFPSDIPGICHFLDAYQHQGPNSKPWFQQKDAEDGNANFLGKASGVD", "experiment": "sGC-activating activity in the CHO reporter cell in vitro", "format": "cell-based", "procedure": "B-3. Action at Recombinant Guanylate Cyclase Reporter Cell Lines\nThe cellular action of the compounds according to the invention is determined using a recombinant guanylate cyclase reporter cell line, as described in F. Wunder et al., Anal. Biochem. 339, 104-112 (2005).", "note": "For at least one compound, name, drawing or mass did not settle the structure.", "data": [{"compound": "O=C(O)c1ccc(CCC(/C=C/c2ccccc2OCCCN2CCOC2=O)Cc2ccc(C(=O)O)cc2)cc1", "note": "(single isomer, unassigned) [Example 5, 4-[(4E)-3-(4-Carboxybenzyl)-5-{2-[3-(2-oxo-1,3-oxazolidin-3-yl)propoxy]phenyl}pent-4-en-1-yl]-benzoic acid]", "values": [{"measurement": "MEC (minimum effective concentration)", "value": 0.55, "unit": "nM"}]}]}
